# Data as given in the supplement of paper PMC8728848.
# The list shows a part of the results.
# B1: Nc3LysM-2 (protein)
# chain: AHVLQARQSVSCDFATAANTGDTCASFAAAWGITEAAFAKLNPGVSCPGNLIAGSEYCVIGTVSTGAPTTTKAATTSTTPPTTTTTTKATTLSTSTTSVSPTGPSPQMPSITSTCNKFYQVQSGDGCWSIEQAQGVSASDFMAWNKAVDAQCDNLWLGYYVCVGVKGGSSPPPTTTTKPASSSAPTPQMPNTVSNCKKFHKVVSGDGCWAIEQAAGISASDFAKWNPYVDAACDNLWLGYYVCIGV
# Columns and labels:
# Assay in all cases: glycan array binding signal (z-score within array); higher = stronger binding
# Settings in all cases: glycan notation: IUPAC condensed, linker removed
# [1] = target: Gal(b1-3)GlcNAc(b1-6)[Gal(b1-3)]GalNAc
# Method in brief: (§1)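 Glycan array data were curated from 3228 arrays in the Consortium for Functional Glycomics database and kept only where the protein sequence was available. Glycan names were converted to IUPAC-condensed notation, and columns mapping to the same glycan were averaged. The binding signal is a within-array Z-score, averaged across arrays of the same protein sequence at different concentrations or buffers and across linkers. Negative Z-scores can be read as non-binding.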
# [2] = target: Gal(b1-3)GlcNAc6S
# Method in brief: as §1
# [3] = target: Gal(b1-3)[Fuc(a1-4)]GlcNAc
# Method in brief: as §1
# [4] = target: Gal(b1-3)[Fuc(a1-4)]GlcNAc(b1-2)Man
# Method in brief: as §1
# [5] = target: Gal(b1-3)[Fuc(a1-4)]GlcNAc(b1-2)Man(a1-3)[Gal(b1-3)[Fuc(a1-4)]GlcNAc(b1-2)Man(a1-6)]Man(b1-4)GlcNAc(b1-4)[Fuc(a1-6)]GlcNAc
# Method in brief: as §1
# [6] = target: Gal(b1-3)[Fuc(a1-4)]GlcNAc(b1-3)Gal(b1-3)[Fuc(a1-4)]GlcNAc
# Method in brief: as §1
# [7] = target: Gal(b1-3)[Fuc(a1-4)]GlcNAc(b1-3)Gal(b1-4)[Fuc(a1-3)]GlcNAc
# Method in brief: as §1
# [8] = target: Gal(b1-3)[Fuc(a1-4)]GlcNAc(b1-6)GalNAc
# Method in brief: as §1
# [9] = target: Gal(b1-3)[GlcNAc(b1-6)]GalNAc
# Method in brief: as §1
# [10] = target: Gal(b1-3)[Neu5Ac(a2-6)]GalNAc
# Method in brief: as §1
# [11] = target: Gal(b1-3)[Neu5Ac(a2-6)]GlcNAc(b1-4)Gal(b1-4)Glc
# Method in brief: as §1
# [12] = target: Gal(b1-3)[Neu5Ac(b2-6)]GalNAc
# Method in brief: as §1
# [13] = target: Gal(b1-4)Gal
# Method in brief: as §1
# [14] = target: Gal(b1-4)GalNAc(a1-3)[Fuc(a1-2)]Gal(b1-4)GlcNAc
# Method in brief: as §1
# [15] = target: Gal(b1-4)GalNAc(b1-3)[Fuc(a1-2)]Gal(b1-4)GlcNAc
# Method in brief: as §1
# [16] = target: Gal(b1-4)Glc
# Method in brief: as §1
# [17] = target: Gal(b1-4)Glc6S
# Method in brief: as §1
# [18] = target: Gal(b1-4)GlcNAc
# Method in brief: as §1
# [19] = target: Gal(b1-4)GlcNAc(a1-6)Gal(b1-4)GlcNAc
# Method in brief: as §1
# [20] = target: Gal(b1-4)GlcNAc(b1-2)Man
# Method in brief: as §1
# [21] = target: Gal(b1-4)GlcNAc(b1-2)Man(a1-3)Man(b1-4)GlcNAc(b1-4)GlcNAc
# Method in brief: as §1
# [22] = target: Gal(b1-4)GlcNAc(b1-2)Man(a1-3)[Gal(b1-4)GlcNAc(b1-2)Man(a1-6)]Man(b1-4)GlcNAc(b1-4)GlcNAc
# Method in brief: as §1
# [23] = target: Gal(b1-4)GlcNAc(b1-2)Man(a1-3)[Gal(b1-4)GlcNAc(b1-2)Man(a1-6)]Man(b1-4)GlcNAc(b1-4)[Fuc(a1-6)]GlcNAc
# Method in brief: as §1
# [24] = target: Gal(b1-4)GlcNAc(b1-2)Man(a1-3)[Gal(b1-4)GlcNAc(b1-2)Man(a1-6)][Gal(b1-4)GlcNAc(b1-4)]Man(b1-4)GlcNAc(b1-4)[Fuc(a1-6)]GlcNAc
# Method in brief: as §1
# [25] = target: Gal(b1-4)GlcNAc(b1-2)Man(a1-3)[Gal(b1-4)GlcNAc(b1-2)Man(a1-6)][GlcNAc(b1-4)]Man(b1-4)GlcNAc(b1-4)[Fuc(a1-6)]GlcNAc
# Method in brief: as §1
# [26] = target: Gal(b1-4)GlcNAc(b1-2)Man(a1-3)[GlcNAc(b1-2)Man(a1-6)]Man(b1-4)GlcNAc(b1-4)GlcNAc
# Method in brief: as §1
# [27] = target: Gal(b1-4)GlcNAc(b1-2)Man(a1-3)[GlcNAc(b1-4)][Gal(b1-4)GlcNAc(b1-2)Man(a1-6)]Man(b1-4)GlcNAc(b1-4)GlcNAc
# Method in brief: as §1
# [28] = target: Gal(b1-4)GlcNAc(b1-2)Man(a1-3)[Man(a1-6)]Man(b1-4)GlcNAc(b1-4)GlcNAc
# Method in brief: as §1
# [29] = target: Gal(b1-4)GlcNAc(b1-2)Man(a1-6)Man(b1-4)GlcNAc(b1-4)GlcNAc
# Method in brief: as §1
# [30] = target: Gal(b1-4)GlcNAc(b1-2)Man(a1-6)[GlcNAc(b1-2)Man(a1-3)]Man(b1-4)GlcNAc(b1-4)GlcNAc
# Method in brief: as §1
# [31] = target: Gal(b1-4)GlcNAc(b1-2)Man(a1-6)[Man(a1-3)]Man(b1-4)GlcNAc(b1-4)GlcNAc
# Method in brief: as §1
# [32] = target: Gal(b1-4)GlcNAc(b1-2)[Gal(b1-4)GlcNAc(b1-4)]Man(a1-3)[Gal(b1-4)GlcNAc(b1-2)Man(a1-6)]Man(b1-4)GlcNAc(b1-4)GlcNAc
# Method in brief: as §1
# [33] = target: Gal(b1-4)GlcNAc(b1-2)[Gal(b1-4)GlcNAc(b1-4)]Man(a1-3)[Gal(b1-4)GlcNAc(b1-2)[Gal(b1-4)GlcNAc(b1-6)]Man(a1-6)]Man(b1-4)GlcNAc(b1-4)GlcNAc
# Method in brief: as §1
# [34] = target: Gal(b1-4)GlcNAc(b1-2)[Gal(b1-4)GlcNAc(b1-4)]Man(a1-3)[GlcNAc(b1-4)][Gal(b1-4)GlcNAc(b1-2)Man(a1-6)]Man(b1-4)GlcNAc(b1-4)GlcNAc
# Method in brief: as §1
# [35] = target: Gal(b1-4)GlcNAc(b1-2)[Gal(b1-4)GlcNAc(b1-4)]Man(a1-3)[GlcNAc(b1-4)][Gal(b1-4)GlcNAc(b1-2)[Gal(b1-4)GlcNAc(b1-6)]Man(a1-6)]Man(b1-4)GlcNAc(b1-4)GlcNAc
# Method in brief: as §1
# [36] = target: Gal(b1-4)GlcNAc(b1-2)[Gal(b1-4)GlcNAc(b1-6)]Man(a1-6)[Gal(b1-4)GlcNAc(b1-2)Man(a1-3)]Man(b1-4)GlcNAc(b1-4)GlcNAc
# Method in brief: as §1
# [37] = target: Gal(b1-4)GlcNAc(b1-2)[Gal(b1-4)GlcNAc(b1-6)]Man(a1-6)[Gal(b1-4)GlcNAc(b1-2)Man(a1-3)]Man(b1-4)GlcNAc(b1-4)[Fuc(a1-6)]GlcNAc
# Method in brief: as §1
binder,measurement,setting,value
B1,glycan array binding signal (z-score),[1],1.5
same,glycan array binding signal (z-score),[2],-1.15
same,glycan array binding signal (z-score),[3],-0.207
same,glycan array binding signal (z-score),[4],-0.039
same,glycan array binding signal (z-score),[5],0.856
same,glycan array binding signal (z-score),[6],0.143
same,glycan array binding signal (z-score),[7],-0.687
same,glycan array binding signal (z-score),[8],0.297
same,glycan array binding signal (z-score),[9],-0.572
same,glycan array binding signal (z-score),[10],0.531
same,glycan array binding signal (z-score),[11],-1.06
same,glycan array binding signal (z-score),[12],-1.08
same,glycan array binding signal (z-score),[13],-1.2
same,glycan array binding signal (z-score),[14],-0.204
same,glycan array binding signal (z-score),[15],-0.141
same,glycan array binding signal (z-score),[16],-0.252
same,glycan array binding signal (z-score),[17],-0.01
same,glycan array binding signal (z-score),[18],-0.568
same,glycan array binding signal (z-score),[19],0.566
same,glycan array binding signal (z-score),[20],-0.756
same,glycan array binding signal (z-score),[21],-0.987
same,glycan array binding signal (z-score),[22],0.482
same,glycan array binding signal (z-score),[23],0.244
same,glycan array binding signal (z-score),[24],0.159
same,glycan array binding signal (z-score),[25],-1.48
same,glycan array binding signal (z-score),[26],-0.6
same,glycan array binding signal (z-score),[27],0.099
same,glycan array binding signal (z-score),[28],-1.08
same,glycan array binding signal (z-score),[29],-0.011
same,glycan array binding signal (z-score),[30],-0.885
same,glycan array binding signal (z-score),[31],1.11
same,glycan array binding signal (z-score),[32],0.717
same,glycan array binding signal (z-score),[33],-0.934
same,glycan array binding signal (z-score),[34],-1.1
same,glycan array binding signal (z-score),[35],-0.14
same,glycan array binding signal (z-score),[36],0.055
same,glycan array binding signal (z-score),[37],-1.32

# Two entries from above in another layout.
binder | measurement | setting | value
B1 | glycan array binding signal (z-score) | [12] | -1.08
same | glycan array binding signal (z-score) | [35] | -0.14
